Measurements: PubChem BioAssay AID2685 (National Center for Advancing Translational Sciences (NCATS), 2010)
Some of the results follow. These are further read-outs of the screen, such as a control signal, another cell line or another target. No call is given for them. Most of these compounds were active or inconclusive in the main read-out, so they are no random draw. Potencies come from curve fits of mixed quality, noted in brackets.

Assay: qHTS Assay for Lipid Storage Modulators in Drosophila S3 Cells;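 as to cell number change: cells counted by Cell Tracker Red CMTPX staining in the red channel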
Settings: BODIPY lipid droplet fluorescence, 18-24 h; for cell number change: measured here: cell count max response, cells fed with added oleic acid
Outline: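 Drosophila S3 cells loaded with oleic acid (400 uM, as added) and compounds at several concentrations; lipid droplets imaged by 488-nm laser-scanning cytometry, 500–530 nm intensity and object ratio to cell channel. Percent activity normalized to 20 uM Triacsin C.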

[1] = measured here: lipid fluorescence (Fed channel) AC50, cells fed with added oleic acid
[2] = measured here: cell number channel AC50, cells fed with added oleic acid

Compound	cell number change [%]	AC50 [1]	AC50 [2]
CCC(CC)c1nnc(NC(=O)CN2C(=O)c3ccccc3C2=O)s1	-2.14	–	–
COc1ccc(-n2nnnc2/C=C\Nc2ccc(C)cc2)cc1	19.4	0.13 µM [falling, full curve, poor fit]	–
Nc1ccccc1Nc1ccccc1	-47.3	7.31 µM [falling, partial curve]	23.1 µM [falling, single point]
Cc1ccc(CNC(=O)C2CCC(=O)N(CCc3ccccc3)C2)s1 (stereo not given)	8.24	6.51 µM [rising, single point]	–
Cc1cc(C)nc(Sc2nc(Cl)nc(N(c3ccccc3)c3ccccc3)n2)n1	-46.6	29.1 µM [falling, single point]	29.1 µM [falling, single point]
CCC(C)Nc1c([N+](=O)[O-])cc(C)cc1[N+](=O)[O-] (stereo not given)	-8.33	29.1 µM [falling, single point]	–
CC1CC(C)CN(C(=O)C2CC(=O)N(c3ccc4c(c3)OCCO4)C2)C1 (stereo not given)	12.8	0.326 µM [rising, partial curve, poor fit]	–
COCCCNc1nc(N)c([N+](=O)[O-])c(NCc2ccccc2)n1	-45.9	–	4.61 µM [falling, full curve]
Cc1c(NC(=S)Nc2ccc(Cl)cc2)c(=O)n(-c2ccccc2)n1C	-1.87	3.26 µM [falling, single point]	4.11 µM [falling, single point]
COc1ccc(CCNC(=O)CCc2nnc(Cc3ccc4c(c3)OCO4)o2)c(OC)c1	7.92	29.1 µM [rising, single point]	–
COc1cccc(C2N(Cc3ccccc3)C(=O)C2(F)F)c1OC (stereo not given)	-26.9	0.206 µM [rising, full curve]	–
O=c1cc(CSc2ccc(Cl)cc2)nc2nc[nH]n12	-2.09	32.6 µM [rising, single point]	–
CC(NC(=O)c1csc2ccccc12)C1CCCO1 (stereo not given)	-178	–	29.1 µM [falling, partial curve]
COC(=O)c1ccc(NC(=O)c2ccc3c(c2)OCO3)cc1	14	1.03 µM [rising, full curve, poor fit]	–
CC(NC(=O)c1ccccc1Cl)C(=O)O (stereo not given)	-12.4	23.1 µM [falling, partial curve]	–
N#Cc1ccsc1NC(=O)COc1ccc(-c2nnco2)cc1	37.3	2.06 µM [rising, full curve, poor fit]	29.1 µM [rising, single point]

Record cards (already shown). Order of values: cell number change [%] | AC50 [1] | AC50 [2]
CC(NC(=O)c1csc2ccccc12)C1CCCO1 (stereo not given) as listed: -178 | – | 29.1 µM [falling, partial curve]
COc1cccc(C2N(Cc3ccccc3)C(=O)C2(F)F)c1OC (stereo not given) as listed: -26.9 | 0.206 µM [rising, full curve] | –
